Experimental data: PMC4962050
Like-named read-outs stand apart in the source and are kept apart here. Results are given in words; binding and its absence hold for the method and conditions named. Binding seen in cells or lysates may run through a third protein. Some entries that bind do so weakly or less than the wild type.

Sequences of proteins named here, by UniProt entry; tags and fusion partners are left off. Residues count along the entry.
UniProt P23819, residues 25-883: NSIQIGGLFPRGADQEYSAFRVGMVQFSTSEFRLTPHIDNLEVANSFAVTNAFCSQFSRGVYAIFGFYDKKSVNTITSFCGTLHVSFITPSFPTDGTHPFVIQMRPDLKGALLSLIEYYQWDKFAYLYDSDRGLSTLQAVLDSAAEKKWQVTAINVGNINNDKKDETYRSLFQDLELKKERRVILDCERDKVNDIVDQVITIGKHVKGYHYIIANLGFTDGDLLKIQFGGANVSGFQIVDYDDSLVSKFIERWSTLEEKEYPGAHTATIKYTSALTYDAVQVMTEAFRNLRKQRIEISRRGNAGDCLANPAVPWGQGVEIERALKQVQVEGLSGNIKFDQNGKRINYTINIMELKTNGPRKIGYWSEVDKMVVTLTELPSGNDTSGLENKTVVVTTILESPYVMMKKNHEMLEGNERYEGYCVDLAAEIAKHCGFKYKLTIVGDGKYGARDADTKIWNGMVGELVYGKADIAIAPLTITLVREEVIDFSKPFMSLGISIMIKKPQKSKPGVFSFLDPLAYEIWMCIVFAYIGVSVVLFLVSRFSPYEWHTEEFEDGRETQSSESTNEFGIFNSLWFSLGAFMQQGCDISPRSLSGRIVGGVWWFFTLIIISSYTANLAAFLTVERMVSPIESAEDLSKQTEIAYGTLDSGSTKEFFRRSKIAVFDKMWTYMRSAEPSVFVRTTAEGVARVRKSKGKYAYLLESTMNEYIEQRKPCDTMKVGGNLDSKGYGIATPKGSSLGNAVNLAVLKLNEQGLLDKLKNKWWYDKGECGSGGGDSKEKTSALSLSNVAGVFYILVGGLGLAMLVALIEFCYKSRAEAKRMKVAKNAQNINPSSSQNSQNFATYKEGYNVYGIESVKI
UniProt P15116, residues 160-906: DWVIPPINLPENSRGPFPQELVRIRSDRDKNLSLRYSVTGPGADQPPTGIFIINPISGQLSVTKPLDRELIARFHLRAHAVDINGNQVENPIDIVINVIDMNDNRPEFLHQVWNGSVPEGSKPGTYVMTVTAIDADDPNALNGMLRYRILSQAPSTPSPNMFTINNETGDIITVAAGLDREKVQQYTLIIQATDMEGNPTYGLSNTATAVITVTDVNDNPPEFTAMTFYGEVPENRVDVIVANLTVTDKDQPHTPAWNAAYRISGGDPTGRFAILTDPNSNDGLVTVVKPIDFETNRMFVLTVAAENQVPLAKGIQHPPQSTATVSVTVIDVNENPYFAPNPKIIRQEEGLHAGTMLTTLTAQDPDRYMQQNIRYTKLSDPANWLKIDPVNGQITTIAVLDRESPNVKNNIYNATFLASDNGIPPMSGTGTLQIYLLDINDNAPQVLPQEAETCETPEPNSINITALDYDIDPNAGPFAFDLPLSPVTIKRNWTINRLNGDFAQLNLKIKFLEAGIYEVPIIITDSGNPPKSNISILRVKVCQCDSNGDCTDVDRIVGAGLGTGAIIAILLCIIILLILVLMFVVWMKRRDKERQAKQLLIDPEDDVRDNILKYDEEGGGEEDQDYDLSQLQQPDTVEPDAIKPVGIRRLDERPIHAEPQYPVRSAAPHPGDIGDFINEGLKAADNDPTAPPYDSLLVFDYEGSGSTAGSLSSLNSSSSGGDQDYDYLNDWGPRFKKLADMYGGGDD
UniProt Q80UG2, residues 24-1893: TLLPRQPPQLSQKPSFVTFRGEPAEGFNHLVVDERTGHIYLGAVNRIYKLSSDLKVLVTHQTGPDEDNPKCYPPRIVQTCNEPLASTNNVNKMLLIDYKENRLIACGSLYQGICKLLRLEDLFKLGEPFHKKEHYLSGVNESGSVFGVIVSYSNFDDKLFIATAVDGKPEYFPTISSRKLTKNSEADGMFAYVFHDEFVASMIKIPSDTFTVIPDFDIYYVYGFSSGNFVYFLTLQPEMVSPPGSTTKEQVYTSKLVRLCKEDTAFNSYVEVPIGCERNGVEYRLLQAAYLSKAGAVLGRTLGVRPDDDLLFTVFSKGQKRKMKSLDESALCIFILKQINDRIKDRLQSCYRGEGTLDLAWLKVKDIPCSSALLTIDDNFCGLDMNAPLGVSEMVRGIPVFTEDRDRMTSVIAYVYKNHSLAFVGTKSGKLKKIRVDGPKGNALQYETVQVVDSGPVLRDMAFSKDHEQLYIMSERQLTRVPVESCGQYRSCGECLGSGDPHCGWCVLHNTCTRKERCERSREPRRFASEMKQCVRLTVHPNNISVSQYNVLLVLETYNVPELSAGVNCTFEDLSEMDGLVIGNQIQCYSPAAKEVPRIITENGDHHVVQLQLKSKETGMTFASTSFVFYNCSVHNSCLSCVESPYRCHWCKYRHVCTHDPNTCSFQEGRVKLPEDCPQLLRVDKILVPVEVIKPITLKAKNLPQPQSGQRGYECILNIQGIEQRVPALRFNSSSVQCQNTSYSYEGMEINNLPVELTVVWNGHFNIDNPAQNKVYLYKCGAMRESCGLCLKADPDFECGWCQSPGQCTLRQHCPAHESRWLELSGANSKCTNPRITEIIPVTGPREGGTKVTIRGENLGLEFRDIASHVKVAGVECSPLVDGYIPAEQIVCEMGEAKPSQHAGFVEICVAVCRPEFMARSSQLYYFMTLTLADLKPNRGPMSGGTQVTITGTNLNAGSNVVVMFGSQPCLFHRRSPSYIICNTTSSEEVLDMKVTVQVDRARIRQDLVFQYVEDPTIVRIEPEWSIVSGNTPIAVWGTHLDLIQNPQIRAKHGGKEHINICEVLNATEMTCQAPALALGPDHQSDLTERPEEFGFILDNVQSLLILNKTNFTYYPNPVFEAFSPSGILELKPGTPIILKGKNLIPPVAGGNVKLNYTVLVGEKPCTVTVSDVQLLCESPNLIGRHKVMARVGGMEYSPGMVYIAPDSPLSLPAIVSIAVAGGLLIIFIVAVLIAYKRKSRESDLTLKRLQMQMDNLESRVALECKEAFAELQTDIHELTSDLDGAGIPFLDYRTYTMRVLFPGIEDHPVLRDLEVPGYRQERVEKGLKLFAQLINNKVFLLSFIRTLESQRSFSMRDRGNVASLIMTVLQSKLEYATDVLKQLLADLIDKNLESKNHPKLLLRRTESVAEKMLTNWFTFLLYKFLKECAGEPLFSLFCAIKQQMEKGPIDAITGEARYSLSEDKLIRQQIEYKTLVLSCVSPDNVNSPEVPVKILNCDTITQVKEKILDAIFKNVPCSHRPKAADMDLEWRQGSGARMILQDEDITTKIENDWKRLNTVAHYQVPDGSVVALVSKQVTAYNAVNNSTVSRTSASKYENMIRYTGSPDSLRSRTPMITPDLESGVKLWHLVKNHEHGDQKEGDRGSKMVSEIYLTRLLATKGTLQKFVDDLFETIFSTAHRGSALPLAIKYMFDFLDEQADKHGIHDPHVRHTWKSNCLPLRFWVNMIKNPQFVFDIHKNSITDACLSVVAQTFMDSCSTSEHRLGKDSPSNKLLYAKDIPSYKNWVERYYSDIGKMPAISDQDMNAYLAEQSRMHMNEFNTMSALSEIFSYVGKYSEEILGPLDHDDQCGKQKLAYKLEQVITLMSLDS

Assays:
[1] = target: GluA2 subunit of AMPA receptors (mouse (endogenous in E16 brain)) (UniProt P23819); experiment: co-IP; 500–700 μg solubilized protein from E16 mouse brains (dams injected daily from E8 with saline or 5 nmol/g GluA2-G-Gpep), anti-GluA2 or control IgG 4 h at 4 °C, protein A/G plus agarose 12 h; Western blot
[2] = target: GluA2 subunit of AMPA receptors (mouse (endogenous in E16 brain)) (UniProt P23819); experiment: as above; remark: listed apart in the source

## N-cadherin (from UniProt P15116 160-906)
[1]
  binding: binds

## Plexin A4 (from UniProt Q80UG2 24-1893) (receptor)
[1]
  binding: binds

B1: Neuronal activity-regulated pentraxin (Narp) (protein, UniProt O70340 15-429)
chain: AGRAQDSPIPGSRFVCTALPPEAARAGCPLPAMPMQGGALSPEEELRAAVLQLRETVVQQKETLGAQREAIRELTGKLARCEGLAGGKARGTGKDTMGDLPRDPGHVVEQLSRSLQTLKDRLESLELQLRTNVSNAGLPSDFREVLQRRLGELERQLLRKVAELEDEKSLLHNETSAHRQKTESTLNALLQRVTELERGNSAFKSPDAFKVSLPLRTNYLYGKIKKTLPELYAFTICLWLRSSASPGIGTPFSYAVPGQANEIVLIEWGNNPIELLINDKVAQLPLFVSDGKWHHICITWTTRDGMWEAFQDGEKLGTGENLAPWHPIKPGGVLILGQEQDTVGGRFDATQAFVGELSQFNIWDRVLRAQEIINIANCSTNMPGNIIPWVDNNVDVFGGASKWPVETCEERLLDL
[2]
  binding: binds
